# From the supplement of paper PMC6445147
# Values scatter widely in this assay.
# B1: human tRNA-Pro; a variant is named by its letters at N, in order (parent)
# chain: GGCTCGTTGGTCTAGNGGTATGATTCTCGCTTAGGGTGCGAGAGGTCCCGGGTTCNNATCCCGGACGAGCCC
# Key:
# [1] = variants of: B1; test: tRNA Pol-III promoter activity, log2 (circRNA frequency / plasmid DNA frequency) (log2 ratio); higher = stronger promoter activity; details: HEK293T; construct: no Pol-II promoter ((-)CMV library)
# [2] = variants of: B1; test: tRNA 3' processing efficiency (processed reads / all reads, maximum-likelihood estimate) (fraction); higher = more efficient 3' processing; details: HEK293T; construct: no Pol-II promoter ((-)CMV library)
# [3] = variants of: B1; test: tRNA 5' processing efficiency (processed reads / all reads, maximum-likelihood estimate) (fraction); higher = more efficient 5' processing; details: HEK293T; construct: CMV Pol-II promoter ((+)CMV library, decapped)
Variant,tRNA Pol-III promoter activity (log2) [1],tRNA 3' processing efficiency [2],tRNA 5' processing efficiency [3]
GAA G17C G18C T53A,4.77,0.3,
GAA G15T A58T,-0.338,0.36,0.25
GAA G15A T19C T53A,6.25,0.4,
GAA G18A T19C T59C,4.71,0.17,
CAA G17C A58G,3.93,0.14,
GAA G9T T53G,-0.727,0.22,
GAA G15A T19A T53A,4.25,0.4,
GAA G15C T19A T59A,3.62,0.5,
GAA G9T T19C T53A,4.62,0.33,
TAA G17T,-1.23,0.67,
TAA G17C,0.439,0.67,
GAA G17T T19G T53A,1.4,0.25,
GAA G17C T59G,1.83,0.27,
GAA G15A T19G T59G,4.62,0.25,
CAA G17T T54A,4.25,0.75,
GAA G15C T19G T59C,5.62,0.42,
GAA G15C T19C A58T,5.44,0.16,
AAA G17C,-0.351,0.8,
GAA G15A G17C T54A,3.94,0.4,
GAA G15A A20T,-0.041,0.57,0.33
GAA G17T T54G,-0.416,0.17,
GAA G15C A58G T59A,4.3,0.11,
GAA G15C A58G T59G,5.21,0.17,

Variant,tRNA Pol-III promoter activity (log2) [1],tRNA 3' processing efficiency [2],tRNA 5' processing efficiency [3]
GAA G15A G17T,-0.179,0.4,0.29
GAA G15A G17C,-0.489,0.25,
GAA G17T A20G T53A,4.34,0.17,
GAA G15C T19G A58T,2.36,0.5,
GAA G15C G17T A58G,2.04,0.75,
GAA G15C T19A T53A,4.26,0.29,
CAA G15A T59G,4.93,0.25,
CAA G15A T59A,4.36,0.13,
CAA G15A T53G,5.92,0.41,
GAA G9T T19A,0.176,0.4,
GAA G18A A58T T59G,3.51,0.22,
GAA G18A A58T T59C,6.17,0.2,
GAA G17C A20T T53A,4.74,0.14,
GAA G9T G15T T59G,6.52,0.86,
TAA G15C T19G,3.28,0.18,
TAA G15T T53A,2.94,0.67,
GAA G15C C55T T59C,2.76,0.25,
GAA G15A G50A,5.25,0.29,
GAA G18A A20G A58T,2.9,0.2,
GAA G15C T19A A20T,3.44,0.2,
GAA G9T G17T,-1.26,0.25,
GAA G15A G18A C55A A58C,4.12,0.5,
GAA G18A T19C T53A,7.84,0.21,

# No new results follow: an excerpt of the list.
Variant,tRNA Pol-III promoter activity (log2) [1],tRNA 3' processing efficiency [2],tRNA 5' processing efficiency [3]
GAA G15A A20T,-0.041,0.57,0.33
GAA G17T T54G,-0.416,0.17,
GAA G15C A58G T59A,4.3,0.11,
GAA G15C A58G T59G,5.21,0.17,
GAA G15A G17T,-0.179,0.4,0.29
GAA G15A G17C,-0.489,0.25,
GAA G17T A20G T53A,4.34,0.17,
GAA G15C T19G A58T,2.36,0.5,
GAA G15C G17T A58G,2.04,0.75,
GAA G15C T19A T53A,4.26,0.29,
CAA G15A T59G,4.93,0.25,
CAA G15A T59A,4.36,0.13,
CAA G15A T53G,5.92,0.41,
GAA G9T T19A,0.176,0.4,
GAA G18A A58T T59G,3.51,0.22,
GAA G18A A58T T59C,6.17,0.2,
GAA G17C A20T T53A,4.74,0.14,
GAA G9T G15T T59G,6.52,0.86,
TAA G15C T19G,3.28,0.18,
TAA G15T T53A,2.94,0.67,
GAA G15C C55T T59C,2.76,0.25,
GAA G15A G50A,5.25,0.29,
GAA G18A A20G A58T,2.9,0.2,
GAA G15C T19A A20T,3.44,0.2,
GAA G9T G17T,-1.26,0.25,
GAA G15A G18A C55A A58C,4.12,0.5,

# Next results follow.

Variant,tRNA Pol-III promoter activity (log2) [1],tRNA 3' processing efficiency [2],tRNA 5' processing efficiency [3]
GAA G17T C55G,-0.479,0.5,
GAA G15C T54A,-0.515,0.25,
GAA G9T G17T T19A A20T C55G,4.94,0.1,
GAA G15A G17T T59G,2.34,0.33,
GAA G15A G17T T59A,4.36,0.25,
GAA G17C T19A,-0.0318,0.25,
GAA G9T T19G A58G,2.62,0.25,
GAA G17A T53A A58T,2.76,0.25,
GAA G17C C55T,-1.03,0.22,
CAA G15C T59G,5.12,0.25,
AAA G17A T19A,3.54,0.27,
GAA G15C G18A T53A,6.44,0.16,
GAA G17T T19G T54A,3.62,0.25,
GAA G15C G17A T19G T53G,5.77,0.2,
GAA G15A T59C,0.908,0.33,
GAA G15A T59A,2.69,0.08,
GAA G15A T59G,1.32,0.23,
GAA G15A T53A,1.19,0.2,
GAA G15A T53G,1.4,0.4,0.2
GAA G18A,-2.22,0.51,0.22
GAA G15A T54A A58G,3.05,0.33,
TAA G15T,-1.01,0.5,0.5
TAA G15C,-0.73,0.25,

Variant,tRNA Pol-III promoter activity (log2) [1],tRNA 3' processing efficiency [2],tRNA 5' processing efficiency [3]
GAA G17T A58C,0.732,0.42,0.25
GAA G17T A58T,1.03,0.71,
GAA G17T A58G,0.469,0.54,
TAA G15C C55T,3.45,0.25,
GAA G15C T53A,2.64,0.24,
GAA G15C T53G,-0.479,0.25,
GAA G15A T19A,0.0351,0.14,
TAA G15A T59A,4.43,0.57,
TAA G15T G18C T54A,6.03,0.25,
CAA G15C A58T,2.19,0.4,
GAA G9T T19A T59C,4.97,0.22,
GAA G15A T19A A58G,4.93,0.25,
GAA G15C A58T T59G,3.4,0.39,
GAA G9T G18T T59G,4.21,0.17,
CAA G9T T53A,5.88,0.17,
GAA G15A T19A T54A T59C,6.26,0.2,
GAA G17T A33T C55G,4.93,0.5,
GAA G15C T19A A58G,3.62,0.25,
GAA G15T T59G,0.51,0.4,
GAA G17A C55T A58G,3.36,0.25,
GAA G17T T59C,-0.744,0.25,
GAA G17T T59G,-0.079,0.38,
GAA G17T T59A,1.35,0.54,

Variant,tRNA Pol-III promoter activity (log2) [1],tRNA 3' processing efficiency [2],tRNA 5' processing efficiency [3]
GAA G18A C55T,-0.666,0.5,0.2
GAA G17C,-2.72,0.44,0.2
GAA G17T,-1.3,0.86,0.2
GAA G17A,-4.03,0.4,0.39
TAA G15T A58C,4.26,0.49,
CAA G18A T19G T59G,7.03,0.25,
GAA G17A T19A C55A,4.69,0.88,
GAA G9T G50A,7.18,0.32,
GAA G15T G17T T54A,6.16,0.71,
GAA G15A G18T T54A,1.87,0.17,
GAA G17C T54C A58T,2.79,0.56,
GAA G15A A58G T59A,3.09,0.4,
GAA G17C A20G T53A,6.1,0.67,
GAA G17C T54A,0.68,0.38,
CAA G18A A58C,3.36,0.25,
GAA G17A A20T A58C,1.28,0.25,
GAA G15A A58C,1.39,0.29,
GAA G15A A58T,2.14,0.43,0.5
GAA G15A A58G,0.121,0.43,
AAA G15A T54A,2.77,0.2,
